Patent publication EP0405506A1 (ABBOTT LABORATORIES, priority 1989, dated 1991)
HELM strings list residues between dots; [ac] is acetyl, [am] amide, other brackets name non-standard units.

Assay: general procedure: solution-phase peptide synthesis; DPPA/N-methylmorpholine; active esters (Boc-Trp-OSu, trichlorophenyl ester); iso

Substance	step yield (coupling step) [%]	step yield (late stage modification step) [%]
Boc-5-amino-pentenoyl-Leu-Asp-Phe-NH₂	50	–
Boc-Trp-Leu-Asp(Bn)-3(S)-benzyl-2-oxo-4-piperazine	84	–
Boc-Trp-Leu-Asp(Bn)-α-Nal-NH₂	70	–
Boc-Trp-Leu-Asp(Bn)-β-Nal-NH₂	73	–
Boc-Trp-Leu-Asp-3(S)-benzyl-2-oxo-4-piperazine	–	19
Boc-Trp-Tpp-Asp(Bn)-Phe-NH₂	83	–
Ctp-Leu-Asp(Bn)-Phe-NHNH-Z	60	–
Ctp-Pip-Asp(O-t-Bu)-Phe-NH₂	52	–
Ctp-Tpp-Asp(Bn)-Phe-NH₂	47	–
Ctp-Tpp-Asp(OBn)(NMe)Phe-NH2	57	–
PEPTIDE1{[cap_Boc].W.L.D.[a1Nal].[am]}$$$$V2.0	–	71
